Laboratory results taken from US9499466B2, “Diene-based carboxylate anion and salt thereof, and polymerizable or curable composition thereof” (NIPPON SHOKUBAI CO., LTD., priority 2010, dated 2016).

Assays:
[1] = Radical (UV) curability test; conditions: UV passes (200 mJ/cm^2 each) until no finger mark; 3% 1-hydroxycyclohexyl phenyl ketone; in the atmosphere
[2] = Pencil hardness of cured material (JIS K 5600-4); conditions: UV-cured film on glass, 25 passes (5 J/cm^2), scratch hardness (pencil method)

CCCCC(CC)C(=O)[O-].CCCCC(CC)C(=O)[O-].[Zn+2] (stereo not shown) [Zn(Oc)2, Zinc octoate, reference compound]
Number of posses [1]: X (A film whose surface still had a mark of the finger even after 25 passes was evaluated as “x”)

C=CCOCC(=C)C(=O)[O-].C=CCOCC(=C)C(=O)[O-].[O]=[Zr+2] [ZrO(AMA)2]
Number of posses [1]: 1 | Pencil hardness Evaluation [2]: 8 H

C=CC(=O)OCC(C)(C)COC(=O)C=C [NPGDA, reference compound]
Number of posses [1]: 23 | Pencil hardness Evaluation [2]: 3 H

C=CCOCC(=C)C(=O)OCC(C)(C)COC(=O)C(=C)COCC=C [NPG-AMA, neopentyl glycol di(α-allyloxymethyl acrylate), reference compound]
Number of posses [1]: 21 | Pencil hardness Evaluation [2]: 2 H

C=CCOCC(=C)C(=O)[O-].C=CCOCC(=C)C(=O)[O-].[Cu+2] [Cu(AMA)2]
Number of posses [1]: X (A film whose surface still had a mark of the finger even after 25 passes was evaluated as “x”)

C=CCOCC(=C)C(=O)OCCOCCOC(=O)C(=C)COCC=C [DEG-AMA, diethylene glycol di(α-allyloxymethyl acrylate), reference compound]
Number of posses [1]: 13 | Pencil hardness Evaluation [2]: 2 H

C=C(C)C(=O)[O-].C=CCOCC(=C)C(=O)[O-].[CH3][Sn+2][CH3] [(CH3)2Sn(AMA)1(MAA)1]
Number of posses [1]: 6

C=CCOCC(=C)C(=O)[O-].C=CCOCC(=C)C(=O)[O-].C=CCOCC(=C)C(=O)[O-].[Au+3] [Au(AMA)3]
Number of posses [1]: 5

C=CC(=O)[O-].C=CCOCC(=C)C(=O)[O-].[Cu+2] [Cu(AMA)1(AA)1]
Number of posses [1]: 2

C=CCOCC(=C)C(=O)[O-].C=CCOCC(=C)C(=O)[O-].[Zn+2] [Zn(AMA)2]
Number of posses [1]: 3 | Pencil hardness Evaluation [2]: 5 H

C=CCOCC(=C)C(=O)[O-].C=CCOCC(=C)C(=O)[O-].C=CCOCC(=C)C(=O)[O-].[Eu+3] [Eu(AMA)3]
Number of posses [1]: 1 | Pencil hardness Evaluation [2]: 5 H

C=C(C)C(=O)[O-].C=CCOCC(=C)C(=O)[O-].C=CCOCC(=C)C(=O)[O-].[In+3] [In(AMA)2(MAA)1]
Number of posses [1]: 1 | Pencil hardness Evaluation [2]: 5 H

C=CCOCC(=C)C(=O)[O-].C=CCOCC(=C)C(=O)[O-].CC(C)[O][Ti+2][O]C(C)C [(i-C3H7O)2Ti(AMA)2]
Number of posses [1]: 1 | Pencil hardness Evaluation [2]: 3 H

C=CCOCC(=C)C(=O)[O-].C=CCOCC(=C)C(=O)[O-].C=CCOCC(=C)C(=O)[O-].[Al+3] [Al(AMA)3]
Number of posses [1]: 1 | Pencil hardness Evaluation [2]: 9 H

C=CC(=O)[O-].C=CCOCC(=C)C(=O)[O-].C=CCOCC(=C)C(=O)[O-].[Fe+3] [Fe(AMA)2(AA)1]
Number of posses [1]: 6

C=CC(=O)[O-].C=CC(=O)[O-].[Zn+2] [Zn(AA)2, Zinc acrylate, reference compound]
Number of posses [1]: 1

C=CC(=O)OCCC(=O)O.[Zr] [Zr(CEA)4, Zirconium carboxyethyl acrylate, reference compound]
Number of posses [1]: 1 | Pencil hardness Evaluation [2]: 3 H

C=CCOCC(=C)C(=O)[O-].C=CCOCC(=C)C(=O)[O-].C=CCOCC(=C)C(=O)[O-].[La+3] [La(AMA)3]
Number of posses [1]: 1 | Pencil hardness Evaluation [2]: 4 to 5 H

C=CCOCC(=C)C(=O)[O-].C=CCOCC(=C)C(=O)[O-].C=CCOCC(=C)C(=O)[O-].[Fe+3] [Fe(AMA)3]
Number of posses [1]: X (A film whose surface still had a mark of the finger even after 25 passes was evaluated as “x”)

C=CC(=O)OCC(CC)(COC(=O)C=C)COC(=O)C=C [TMPTA, reference compound]
Number of posses [1]: 8 | Pencil hardness Evaluation [2]: 4 to 5 H

C=CCOCC(=C)C(=O)O.CCN(CC)CC [(C2H5)3NH(AMA)]
Number of posses [1]: 1

C=CC(=O)OCCOCCOC(=O)C=C [DEGDA, reference compound]
Number of posses [1]: 14 | Pencil hardness Evaluation [2]: 2 H

C=CCOCC(=C)C(=O)[O-].C=CCOCC(=C)C(=O)[O-].C=CCOCC(=C)C(=O)[O-].[Cr+3] [Cr(AMA)3]
Number of posses [1]: 2 | Pencil hardness Evaluation [2]: 7 H

C=C(C)C(=O)[O-].C=CCOCC(=C)C(=O)[O-].[Ni+2] [Ni(AMA)1(MAA)1]
Number of posses [1]: 6

C=CCOCC(=C)C(=O)[O-].C=CCOCC(=C)C(=O)[O-].CCC[O][Zr+2][O]CCC [(n-C3H7O)2Zr(AMA)2]
Number of posses [1]: 1

C=CCOCC(=C)C(=O)[O-].C=CCOCC(=C)C(=O)[O-].[CH3][Sn+2][CH3] [(CH3)2Sn(AMA)2]
Number of posses [1]: 5 | Pencil hardness Evaluation [2]: 3 H

C=C(C)COCC(=C)C(=O)[O-].C=C(C)COCC(=C)C(=O)[O-].[Zn+2] [Zn(MAMA)2]
Number of posses [1]: 3 | Pencil hardness Evaluation [2]: 5 H

C=CCOCC(=C)C(=O)[O-].C=CCOCC(=C)C(=O)[O-].C=CCOCC(=C)C(=O)[O-].[Bi+3] [Bi(AMA)3]
Number of posses [1]: 1 | Pencil hardness Evaluation [2]: 3 H

C=CCOCC(=C)C(=O)[O-].C=CCOCC(=C)C(=O)[O-].C=CCOCC(=C)C(=O)[O-].[Er+3] [Er(AMA)3]
Number of posses [1]: 1 | Pencil hardness Evaluation [2]: 9 H

C=CCOCC(=C)C(=O)[O-].C=CCOCC(=C)C(=O)[O-].[Ba+2] [Ba(AMA)2]
Number of posses [1]: 1 | Pencil hardness Evaluation [2]: 3 H

Some compounds share one wording; it may come from a single statement.
